Laboratory results taken from patent US10206988B2 (The University of Toledo, priority 2012, dated 2019).

Experiment: general procedure: Fmoc solid-phase peptide synthesis; preloaded Fmoc-L-Ala-Wang resin; preloaded Fmoc-L-Val Wang resin; DIC/HOBt
Details: lipidation step

With Pam3Cys-MUC1 VNTR-TACA conjugate the step yield was 100%.
Pam3Cys-MUC1-Tn showed a step yield of 100%.
